Among the data in PubChem BioAssay AID445 (National Center for Advancing Translational Sciences (NCATS), 2006) are AC50 values, retold here.

The list shows a part of the results. The main result of the screen is listed elsewhere. These columns were measured beside it and carry no call. The list favours compounds with an active or inconclusive main result. Potencies come from curve fits of mixed quality, noted in brackets.

The experiment can be described thus: IkB Signaling. To be noted: ABC-DLBCL IkBa-CBG/CBR dual luciferase ratio (green luciferase fused to IkBa over red control in OCI-Ly3 lymphoma cells), 4 h. A digest of the protocol:
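Curves were fitted separately to fusion (green), unfused (red) and ratio luminescence, then classed by r2, magnitude and activity. Cells: OCI-Ly3, 4 h compound plus doxycycline at 37C; 10 uM MG-132 defined full response.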

The mark [1] stands for this setting: measured here: control luc red channel unless noted.
Where [2] appears, read: measured here: IkB-luc green channel.
Setting [3] is: measured here: control luc red channel.

For the compound `CCOC(=O)c1ccccc1NC(=O)CCOc1ccccc1`, the AC50 (usually the midpoint of the concentration-response curve, whichever way the signal moves) under setting [1] was 20 µM [falling, single point]. Regarding `Cc1cccc(N2CCN(C(=O)NCc3noc4ccccc34)CC2)c1C`, the AC50 under setting [1] was 15.8 µM [falling, single point]. Consider `CN(c1ccccc1)c1nc(N2CCCC2)nc(-n2ccnc2)n1`, for which the AC50 under setting [1] was 25.1 µM [falling, single point]. In the case of `COc1ccccc1CNC(=O)C(=O)NCC(c1ccco1)S(=O)(=O)c1cccs1` (centres undefined), under setting [1], the AC50 is 5.01 µM [falling, single point]. As for `CCc1ccc(CCC(=O)Nc2sc3c(c2C#N)CCCC3)o1`, the AC50 under setting [2] was 3.16 µM [rising, single point] and the AC50 under setting [3] was 39.8 µM [falling, single point]. As to `OCCCc1nc2ccccc2n1CCCCOc1ccccc1`, the AC50 under setting [1] is 3.16 µM [rising, partial curve]. `CCn1c(=O)n(CC)c2cc(N3CCCCC3)c(NC(=O)Nc3cc(C)cc(C)c3)cc21`: the AC50 under setting [1] was 39.8 µM [falling, single point].

In the case of `COc1ccc(Cl)cc1NC(=O)Cn1c(=O)n(Cc2ccco2)c(=O)c2cccnc21`, the AC50 under setting [1] was 31.6 µM [falling, single point]. In the case of `O=c1nc2sc3ccccc3n2c(=O)n1-c1ccc(Cl)c(Cl)c1`, the AC50 under setting [1] is 15.8 µM [falling, partial curve].

For `O=C1c2[nH]nc(-c3ccccc3O)c2C(c2ccc(Cl)cc2)N1Cc1ccco1` (centres undefined), the AC50 under setting [1] is 20 µM [falling, partial curve]. As to `CCOC(=O)c1[nH]c2ccc(F)cc2c1NC(=O)CN1CCN(C/C=C/c2ccccc2)CC1`, under setting [1], the AC50 is 10 µM [falling, partial curve]. On to `CCOc1cccc2cc(C(=O)N3CCc4ccccc43)c(=O)oc12`, for which the AC50 under setting [1] was 2.51 µM [falling, full curve, poor fit].

`Cc1ccc(NC(=O)c2cccc(N(C)C)c2)cc1NC(=O)c1ccc(O)cc1`: under setting [1], the AC50 is 20 µM [falling, partial curve]. On to `COc1ccccc1NC(=O)Cn1c(=O)n(-c2cccc(C(C)=O)c2)c(=O)c2c3c(sc21)CN(C(C)=O)CC3`, for which, under setting [1], the AC50 is 39.8 µM [falling, single point]. In the case of `O=C1CC(c2nc3ccccc3[nH]2)CN1c1cccc(C(F)(F)F)c1` (centres undefined), the half-maximal activity concentration (AC50) under setting [1] was 10 µM [falling, partial curve]. Same read-out and setting: as for `Cc1ccc(C2C=C(c3ccc(Cl)cc3)Nc3nc(NS(=O)(=O)c4ccccc4)nn32)cc1` (centres undefined), the figure is 39.8 µM [falling, single point]. Turning to `O=C(CCC1N=C2c3ccccc3N=C(SCC(=O)Nc3ccccc3F)N2C1=O)NCc1ccccc1` (centres undefined), under setting [1], the AC50 is 31.6 µM [falling, single point].

As for `Cc1ccc(CNC(=O)CCCCn2c(=O)c3ccccc3n(Cc3c(C)cc(C)cc3C)c2=O)cc1`, the AC50 under setting [1] was 1 µM [falling, partial curve]. Still for that read-out and setting: for `CCOC(=O)c1ccccc1NC(=O)Cn1c(=O)n(Cc2nc(-c3ccccc3)no2)c(=O)c2ccccc21` the value was 12.6 µM [falling, partial curve]. With `COc1ccc(OC)c(S(=O)(=O)N2CCC(c3ccncc3)CC2)c1`, the AC50 under setting [1] was 2.51 µM [rising, full curve]. Turning to `CCc1ccc(-n2c(SCc3ccccc3F)nc3[nH]ncc3c2=O)cc1`, under setting [1], the AC50 was 31.6 µM [falling, single point]. As to `O=C(c1ccc2c(c1)N(Cc1ccccc1F)C(=O)c1ccccc1S2(=O)=O)N1CCCCC1`, the AC50 under setting [1] was 5.01 µM [falling, full curve]. Regarding `COc1cccc(NC(=O)CSC2=Nc3ccccc3N=C(c3ccc(F)cc3)C2)c1`, the AC50 under setting [1] is 10 µM [falling, partial curve]. Take `C[C@]12C[C@H](O)[C@H]3[C@@H](CCC4=CC(=O)CC[C@@]43C)[C@@H]1CC[C@@H]2C(=O)CO`: the AC50 by setting is: under setting [2], 0.0158 µM [rising, full curve]; under setting [3], 0.0158 µM [rising, full curve, poor fit]. On to `Oc1ccc(COCc2ccccc2)c2cccnc12`, for which, under setting [1], the AC50 was 6.31 µM [rising, partial curve, poor fit] [measured here: IkB-luc green channel]. For `Cc1ccc2nc(-c3ccsc3)c(Nc3ccccc3C)n2c1`, the AC50 under setting [1] is 0.0501 µM [falling, full curve, poor fit]. For `COc1ccccc1/C=C/c1nc(C#N)c(N2CCCCC2)o1`, under setting [1], the AC50 was 39.8 µM [falling, single point]. On to `Cc1nc2nncn2c(N2CCN(c3ccccc3)CC2)c1C`, for which, under setting [1], the AC50 was 6.31 µM [falling, single point]. With `C/C(=C\C(=O)Nc1nccs1)c1ccccc1`, the AC50 under setting [1] was 20 µM [falling, single point]. With `COC(=O)c1scc(-c2ccccc2)c1S(=O)(=O)Nc1ccccc1`, the AC50 under setting [1] is 39.8 µM [falling, single point]. As to `O=C1c2ccccc2C(=O)C1(c1ccccc1)N1CCN(c2cccc(Cl)c2)CC1`, the AC50 under setting [1] was 6.31 µM [falling, full curve, poor fit]. On to `CC(C)c1ccc(S(=O)(=O)c2nnn3c2nc(NCCc2ccccc2)c2sccc23)cc1`, for which the AC50 under setting [1] is 6.31 µM [falling, full curve].

For the compound `N#CC1=C(N)Oc2c(ccc3cccnc23)C1c1cccnc1` (centres undefined), the AC50 under setting [1] is 31.6 µM [falling, partial curve]. Regarding `O=C(O)c1c(-c2ccccc2)c2oc3ccccc3c2[nH]c1=O`, the AC50 under setting [1] is 3.98 µM [rising, full curve].

In the case of `CC(=O)Nc1ccc(S(=O)(=O)NCC2CCC(C(=O)NCCc3ccccc3)CC2)cc1` (centres undefined), the AC50 under setting [1] was 5.01 µM [falling, full curve, poor fit]. As for `O=C(CSc1nnnn1-c1ccccc1)Nc1nsc(-c2ccc(Cl)cc2)n1`, under setting [1], the AC50 is 1 µM [falling, full curve]. In the case of `COc1cc(-c2ccno2)ccc1S(=O)(=O)N1CCN(c2cc(C)ccc2C)CC1`, the AC50 under setting [1] was 10 µM [falling, partial curve].

`COCC(=O)Oc1c(Sc2ccc(C)cc2)c(C)nn1C(C)(C)C`: the AC50 under setting [1] is 10 µM [falling, partial curve]. Regarding `COc1cccc(N2CC(NC(=O)C(c3ccccc3)c3ccccc3)CC2=O)c1` (centres undefined), the AC50 under setting [1] is 12.6 µM [falling, partial curve, poor fit].

Turning to `Cc1cc(C(=O)CN2C(=O)NC(C)(c3cccc(Br)c3)C2=O)c(C)n1Cc1ccco1` (centres undefined), the AC50 under setting [1] is 15.8 µM [falling, partial curve]. For `O=C(Nc1ccc(Br)c2cccnc12)c1cccc2ccccc12`, the AC50 under setting [1] was 12.6 µM [rising, partial curve]. With `Cc1cc(C)cc(NC(=O)CCC(=O)N2Cc3ccccc3Oc3ncccc32)c1`, the AC50 under setting [1] is 20 µM [falling, single point]. Turning to `Cc1ccc(CCNC(=O)c2cc3sccc3n2Cc2ccc(C)cc2)cc1`, the AC50 under setting [1] is 12.6 µM [falling, partial curve]. On to `c1ccc2nc(-c3nc4ccccc4[nH]3)ccc2c1`, for which the AC50 under setting [1] was 2.51 µM [falling, full curve]. Regarding `Cc1c(Cl)ccc2sc(NC(=O)c3ccc(S(=O)(=O)N4CCCc5ccccc54)cc3)nc12`, the AC50 under setting [1] was 1 µM [falling, partial curve]. For `CCc1ccccc1NC(=O)c1nnn(-c2ccc(F)cc2)c1C`, the AC50 under setting [1] is 0.398 µM [falling, partial curve]. Consider `CC1CCN(S(=O)(=O)c2ccc3c(c2)oc(=O)n3CC(=O)NCc2ccc(F)cc2)CC1`, for which the AC50 under setting [1] is 31.6 µM [falling, single point]. `Cc1cc(C)cc(-n2c(SCC(=O)N3CCCCC3)nc3c([nH]c4ccccc43)c2=O)c1`: the half-maximal activity concentration (AC50) under setting [1] was 15.8 µM [rising, partial curve, poor fit]. Consider `COc1ccc(C(=O)c2cn[nH]c2-c2cc(Cl)ccc2O)cc1`, for which, under setting [1], the AC50 is 10 µM [falling, partial curve]. Regarding `Cc1cc(C)nc(NS(=O)(=O)c2ccc(NC(=O)COc3ccc(Cl)cc3C)cc2)n1`, the AC50 under setting [1] was 25.1 µM [falling, single point].

On to `Cc1nc(SCc2cccc(F)c2)[nH]c(=O)c1C#N`, for which the AC50 under setting [1] is 7.94 µM [falling, partial curve]. For the compound `CCn1c(SCc2ccccc2)nnc1-c1ccc(S(=O)(=O)N2CCCCC2)cc1`, the AC50 under setting [1] is 31.6 µM [falling, partial curve]. `Clc1cccc(N2CCN(c3nc4ccccc4n4cnnc34)CC2)c1`: the AC50 under setting [1] is 3.98 µM [rising, single point]. `O=C(CNS(=O)(=O)c1ccc(Br)s1)NCC1COc2ccccc2O1` (centres undefined): under setting [1], the AC50 is 25.1 µM [falling, partial curve].

Take `COc1cccc(NC(=O)CSc2nc(=O)n(Cc3cccnc3)c3c2CCC3)c1`: the AC50 under setting [1] was 10 µM [falling, partial curve]. Regarding `Cc1ccc2nc3c(cc(C#N)c(=O)n3-c3nnc(SCc4ccc(F)cc4)s3)c(=O)n2c1`, under setting [1], the AC50 was 39.8 µM [rising, single point].

`COc1ccc(OCC(=O)Nc2ccc(-c3nc4cc(Cl)ccc4o3)cc2)cc1`: the AC50 under setting [1] is 10 µM [rising, partial curve, poor fit]. Turning to `CCCN(CCC)C(=O)Cn1c(=O)n(-c2ccc(OC)cc2OC)c(=O)c2c3c(sc21)CCC3`, the AC50 under setting [1] was 39.8 µM [falling, single point]. For `Cc1ccc(Sc2ccc(N3CCCC(C(=O)Nc4ccc(F)c(Cl)c4)C3)nn2)cc1` (centres undefined), the concentration at half-maximal activity (AC50) under setting [1] was 5.01 µM [falling, full curve]. `Cc1c(C(=O)NCc2ccccn2)sc2nc(-c3ccccc3)cn12`: the concentration at half-maximal activity (AC50) under setting [1] is 10 µM [falling, partial curve] [measured here: IkB-luc green channel]. As for `NC(=O)c1nc(Nc2ccccc2)sc1NC(=O)c1c(F)cccc1F`, the AC50 under setting [1] is 0.398 µM [falling, full curve, poor fit].

`CS(=O)(=O)N(Cc1ccccc1)c1ccc(C(=O)NC2CCCCC2O)cc1` (centres undefined): the AC50 under setting [1] is 7.94 µM [falling, partial curve].
